# Values quoted from earlier work in article PMC10828645 (Heliyon, 2024).
# How the values were obtained:
# [1] = marketed drugs; ref [1],[7]; cited from earlier work
# [2] = mouse, in vivo; cited from earlier work
SMILES,"fu,b [1]","Kp,brain [2]","Kp,uu,brain [2]"
CN1C(=O)CN=C(c2ccccc2)c2cc(Cl)ccc21 [Diazepam],0.050,2.00,–
CN1CC[C@]23c4c5ccc(O)c4O[C@H]2[C@@H](O)C=C[C@H]3[C@H]1C5 [Morphine],0.500,–,0.72
